{
  "sequences": {"note": "Amino acid sequences for entries named in this document (tags omitted). Residues count along the entry.", "UniProt P15328, 25-234": "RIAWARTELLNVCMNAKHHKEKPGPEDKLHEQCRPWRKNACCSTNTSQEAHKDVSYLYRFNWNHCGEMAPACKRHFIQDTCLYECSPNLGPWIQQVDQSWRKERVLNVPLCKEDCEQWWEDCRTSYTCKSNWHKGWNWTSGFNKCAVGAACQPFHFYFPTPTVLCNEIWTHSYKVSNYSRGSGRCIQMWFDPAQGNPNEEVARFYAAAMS"},
  "source": "patent US12178892B2",
  "about": "“Compounds for positron emission tomography” (Endocyte, Inc., priority 2013, dated 2024)",
  "key": {"[1]": {"molecular_target": "T1, FR (Homo sapiens, UniProt P15328)", "T1 construct": "to FR in KB and Cal51 tumor crude homogenate; from tissue; host or cells: KB and Cal51 tumour xenograft crude homogenates", "experiment": "Binding to FR in KB xenograft tumor crude homogenate (concentration dependent binding, Scatchard analysis)", "details": "KB xenografts", "method": "(§1) EXAMPLE. The specificity of the radionuclide containing conjugates binding to FR is evaluated against KB xenografts homogenates and Cal51 xenografts homogenates. […] Scatchard analyses were also performed. […] Without being bound by theory, it is believed herein that the moderate expression of FR in Cal51 xenografts accounts for the lower binding affinity. Binding affinities of ^18F-AIF-QC07017 (2) to FR in KB and Cal51 tumor crude homogenate."}, "[2]": {"molecular_target": "T1, FR", "experiment": "Binding to FR in Cal51 xenograft tumor crude homogenate (concentration dependent binding, Scatchard analysis)", "details": "Cal51 xenografts", "method": "as §1"}},
  "note": "At least one compound was matched to its structure with a doubt left.",
  "data": [
    {"smiles": "Nc1nc2ncc(CNc3ccc(C(=O)N[C@@H](CCC(=O)NCCOCCOCCOCCOCCOCCOCCOCCOCCOCCOCCOCCOCCC(=O)NCCNC(=O)CN4CCN(CC(=O)O)CCN(CC(=O)O)CC4)C(=O)O)cc3)nc2c(=O)[nH]1", "note": "[^18F-AIF-QC07043]", "values": [
      {"measurement": "Kd", "setting": "[1]", "value": 0.4, "unit": "nM"},
      {"measurement": "Kd", "setting": "[2]", "value": 1.2, "unit": "nM"}
    ]}
  ]
}
